According to US8673914B2, “Use of phosphodiesterase inhibitors for treating multidrug resistance” (St. John's University, priority 2011, dated 2014):
For at least one compound, name, drawing or mass did not settle the structure.

Tested on: HEK293-pcDNA3.1 cells
Test: [^3H]-paclitaxel accumulation (Example 4)
Assay type: cell-based

COc1ccc2cc1Oc1ccc(cc1)C[C@H]1c3c(cc4c(c3Oc3cc5c(cc3OC)CCN(C)[C@@H]5C2)OCO4)CCN1C [Cepharanthine]
intracellular levels of [^3H]-paclitaxel: Neither PDE5 inhibitors nor cepharanthine significantly affected
